# Some results were stated once for a whole list of compounds, not compound by compound.
# Test system: S. mansoni
# Assay: First vaccination experiment against S. mansoni (Example 4, FIG. 11)
# Type: in vivo, outbred Swiss mice
# Conditions: 70 μg peptide + MPL-TDM + Al(OH)3, inguinal route, challenge 100 cercariae 60 days after last immunization, perfused 45 days later
# Protocol: Percentage protection, {(C−V)/C}×100}, of outbred Swiss mice is given after vaccination and subsequent challenge with 100 cercariae. From left to right the bars correspond to vaccination with peptide 1.2, peptide 1.3, peptide 1.4, peptide 2.1, peptide 2.2, peptide 2.3, peptide 2.4, peptide 2.5, peptide 2.6, r-Sm14, saline extract (SE) administered via the footpad, SE administered via the inguinal route, adjuvant and PBS respectively. All peptides were administered via the inguinal route. All peptides were administered in the presence of the adjuvant monophosphoryl lipid A+trehalose dicorynomycolate (MPL-TDM, Ribi ImmunoChem Research Inc.)+Alum.
# In this experiment, outbreed Swiss mice were immunized with two intradermal/subcutaneous doses at an interval of 7 days followed by a booster injection, 21 days later. In the case of the peptides, a dose of 70 μg in the presence of the adjuvant monophosphoryl lipid A+trehalose dimycolate (MPL-TDM, Ribi ImmunoChem Research Inc.) and Al(OH)3 was used for all injections. […]
# For assays of protection against S. mansoni, the animals were challenged subcutaneously with 100 cercariae, 60 days after the last immunization and perfused 45 days later. Overall protection was calculated by the formula {(C−V)/C}×100, where C is the average number of worms in control animals and V is the average number of worms in vaccinated animals.
sequence,measurement,value
"VTVGDVTGGSDAVMSKLG (Oligopeptide derived from the fusion of two peptides from Schistosoma mansoni) [Peptide 1.4, 1.3 modified]",Percentage protection {(C−V)/C}×100,over 40%

# From patent US8909483B2, “Direct or indirect diagnostic test for helminth infection” (priority 2002, dated 2014)
